Measured values reported in patent US7393824B1, “Methods of peptide preparation” (Lytix Biopharma, priority 2000, dated 2008).
Not every detail of the peptide structures is certain; ends, links or a residue may be inferred. Residues, ends and D or L forms follow the SMILES beside them.

What was measured:
[1] = test system: Meth A murine sarcoma cell line; type: cell-based; conditions: 4h; concentration needed to kill 50% of the cells
[2] = test system: Escherichia coli ATCC 25922; type: cell-based; conditions: Table 2
Protocol: The bacterial strains used were: Escherichia coli ATCC 25922 and Staphylococcus aureus ATCC 25923. All strains were stored at −70° C. The bacteria were grown in 2% Bacto Peptone water (Difco 1807-17-4). All tests were performed with bacteria in mid-logarithmic growth phase. Determination of the minimum inhibitory concentration (MIC) of the peptides for bacterial strains were performed in 1% Bacto Peptone water. A standard microdilution technique with an inoculum of 2×10^6 CFU/ml was used. All assays were performed in triplets. Since the peptides are positively charged and therefore could adhere to the plastic wells, we controlled the actual concentration of the peptides in the solution by HPLC. There was no difference between the concentration of the peptides before or after adding the solution to the plastic wells.

CSCC[C@H](NC(=O)[C@H](CCCNC(=N)N)NC(=O)[C@H](Cc1c[nH]c2ccccc12)NC(=O)[C@H](C)NC(=O)[C@H](Cc1c[nH]c2ccccc12)NC(=O)[C@H](CCCNC(=N)N)NC(=O)[C@H](Cc1ccccc1)NC(=O)[C@H](C)NC(=O)[C@H](CCCCN)NC(=O)[C@H](CCCNC(=N)N)NC(=O)[C@H](Cc1c[nH]c2ccccc12)NC(=O)[C@H](C)NC(=O)[C@@H]1CCCN1)C(=O)N[C@@H](CC(C)C)C(=O)N[C@@H](CCCCN)C(=O)N[C@@H](CCCCN)C(=O)N[C@@H](C)C(=O)N[C@@H](C)C(=O)O [LFB (14-31)m, PAWRKAFRWAWRMLKKAA] (H-PAWRKAFRWAWRMLKKAA-OH)
IC50 [1]: 6.6 µM | Mic E-coli [2]: 2/4
